Results are given in words; binding and its absence hold for the method and conditions named. In cells and extracts the contact can be indirect. Some binding calls cover weakened binding; strength is not graded here.

Chains of the proteins cited; added tags and fusions are not shown.
UniProt P03372: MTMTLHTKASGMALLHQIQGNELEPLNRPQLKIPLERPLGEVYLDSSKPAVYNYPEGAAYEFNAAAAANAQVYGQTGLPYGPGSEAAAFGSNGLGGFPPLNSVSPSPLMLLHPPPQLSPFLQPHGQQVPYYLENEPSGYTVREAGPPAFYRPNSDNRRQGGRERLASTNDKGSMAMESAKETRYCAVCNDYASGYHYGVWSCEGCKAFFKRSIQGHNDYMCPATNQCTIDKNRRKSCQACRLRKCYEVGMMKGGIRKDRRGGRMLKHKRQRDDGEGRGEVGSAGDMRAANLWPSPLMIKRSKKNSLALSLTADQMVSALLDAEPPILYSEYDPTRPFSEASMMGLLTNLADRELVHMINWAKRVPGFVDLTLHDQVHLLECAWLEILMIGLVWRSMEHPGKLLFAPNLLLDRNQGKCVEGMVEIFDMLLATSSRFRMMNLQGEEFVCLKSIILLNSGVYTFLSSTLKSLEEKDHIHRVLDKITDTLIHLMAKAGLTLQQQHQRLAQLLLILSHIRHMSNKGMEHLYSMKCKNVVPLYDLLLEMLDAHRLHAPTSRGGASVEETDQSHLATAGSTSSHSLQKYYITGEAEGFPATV
UniProt Q13620: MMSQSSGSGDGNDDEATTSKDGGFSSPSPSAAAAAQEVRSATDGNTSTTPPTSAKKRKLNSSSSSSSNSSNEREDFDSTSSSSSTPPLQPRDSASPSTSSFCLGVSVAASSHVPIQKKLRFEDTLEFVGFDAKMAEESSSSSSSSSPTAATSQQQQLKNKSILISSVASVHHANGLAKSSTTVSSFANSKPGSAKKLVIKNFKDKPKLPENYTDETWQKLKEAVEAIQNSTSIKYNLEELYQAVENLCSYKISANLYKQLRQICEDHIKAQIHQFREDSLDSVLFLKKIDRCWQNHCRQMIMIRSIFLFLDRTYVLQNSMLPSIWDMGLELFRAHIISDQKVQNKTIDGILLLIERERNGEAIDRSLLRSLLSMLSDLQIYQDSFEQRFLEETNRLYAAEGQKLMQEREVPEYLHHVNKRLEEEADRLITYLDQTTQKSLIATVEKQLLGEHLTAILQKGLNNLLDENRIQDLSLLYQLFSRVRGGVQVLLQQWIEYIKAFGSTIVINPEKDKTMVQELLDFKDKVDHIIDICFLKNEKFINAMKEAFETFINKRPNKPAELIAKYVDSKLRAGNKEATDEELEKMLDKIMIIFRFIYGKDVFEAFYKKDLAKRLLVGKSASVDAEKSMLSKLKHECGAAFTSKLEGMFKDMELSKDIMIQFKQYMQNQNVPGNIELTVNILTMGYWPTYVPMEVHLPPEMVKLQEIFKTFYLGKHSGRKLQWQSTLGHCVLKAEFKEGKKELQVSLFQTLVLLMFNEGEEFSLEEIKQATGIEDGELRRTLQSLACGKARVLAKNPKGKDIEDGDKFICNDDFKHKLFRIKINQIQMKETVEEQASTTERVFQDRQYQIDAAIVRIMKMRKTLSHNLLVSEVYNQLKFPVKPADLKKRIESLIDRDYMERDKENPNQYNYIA

This assay has as its target Estrogen receptor α (human (endogenous in MCF7)) (UniProt P03372). Nature of the assay: co-IP; endogenous proteins from MCF7 cells with or without Flag-HA-MOF overexpression; BC-200 lysis buffer (20 mM HEPES, 200 mM KCl, 10 mM β-mercaptoethanol, 1 mM EDTA, 10% glycerol, 0.1% NP-40); 1 μg of antibody, Protein A/G magnetic beads; detected by Western blotting.

Take Cullin 4b (from UniProt Q13620 1-913): the binding entry is given as “binds”.

These data come from paper PMC9539768.
